PubChem BioAssay AID1159584 – Peter MacCallum Cancer Centre, 2016
Here is an unselected part of about 18,000 reagents. Further read-outs or replicates are left out here. Reagent sequences are not shown. Not stated in the record: the amount of reagent, the time to read-out.

Test: 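Genes that CDH1-null MCF10A cells selectively depend on to survive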 (primary screen)
System: human MCF10A breast epithelial cells, parental and CDH1-null
Knock-down reagent: siRNA against human genes
Read-out: 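ATP luminescence (CellTiter-Glo) viability per line relative to mean mock wells over all plates, and the ratio of CDH1-null to parental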
Scale: CDH1-null / parental viability ratio: higher = CDH1-null cells survive relatively better than parental; CDH1-null viability vs mock: higher = more viable CDH1-null cells

| Gene | PubChem SID | CDH1-null / parental viability ratio | CDH1-null viability vs mock (fraction of mock) |
| --- | --- | --- | --- |
| SPINK5 (GeneID 11005) | SID152149836 | 0.93 | 0.54 |
| LPCAT4 (GeneID 254531) | SID152152183 | 0.47 | 0.41 |
| DCP2 (GeneID 167227) | SID152156651 | 1.26 | 1.32 |
| TOMM7 (GeneID 54543) | SID134317971 | 1.08 | 0.26 |
| MRPS2 (GeneID 51116) | SID135622460 | 1.35 | 0.92 |
| PPP1R12A (GeneID 4659) | SID134315686 | 1.39 | 0.61 |
| COQ5 (GeneID 84274) | SID134314471 | 0.86 | 0.6 |
| KIF3B (GeneID 9371) | SID134314326 | 1.05 | 0.92 |
| CDK2 (GeneID 1017) | SID56478596 | 0.75 | 0.72 |
| ATP6AP2 (GeneID 10159) | SID134317863 | 1.28 | 0.73 |
| IPO7 (GeneID 10527) | SID134316538 | 1.11 | 0.93 |
| GLYATL1 (GeneID 92292) | SID135621913 | 1.04 | 0.99 |
| SLC39A6 (GeneID 25800) | SID135621410 | 1.05 | 0.91 |
| CDC26 (GeneID 246184) | SID134321232 | 1.21 | 0.34 |
| CA5A (GeneID 763) | SID134313802 | 0.97 | 0.72 |
| LCE1B (GeneID 353132) | SID134322839 | 1.48 | 0.43 |
| CDH26 (GeneID 60437) | SID135623315 | 0.82 | 0.56 |
| MCHR1 (GeneID 2847) | SID152153428 | 1.32 | 0.79 |
| HEATR6 (GeneID 63897) | SID135623047 | 1.14 | 1.12 |
| MDGA1 (GeneID 266727) | SID135623080 | 0.96 | 0.48 |
| TMEM123 (GeneID 114908) | SID152154076 | 0.73 | 0.63 |
| HPX (GeneID 3263) | SID152148387 | 0.93 | 0.56 |
| RASSF5 (GeneID 83593) | SID152154861 | 1.12 | 1.1 |
| BOLA2B (GeneID 654483) | SID135625558 | 1.26 | 0.88 |
| SPTBN1 (GeneID 6711) | SID152155875 | 1.03 | 0.69 |
| SAMD12 (GeneID 401474) | SID135625094 | 0.89 | 0.84 |
| SEMA4A (GeneID 64218) | SID134319715 | 1.23 | 0.74 |
| TM6SF2 (GeneID 53345) | SID152151821 | 1.04 | 0.52 |
| CEBPE (GeneID 1053) | SID134314247 | 1.14 | 0.8 |
| SMCO3 (GeneID 440087) | SID135625307 | 1.23 | 1.08 |
| RGPD1 (GeneID 400966) | SID135625437 | 0.71 | 0.54 |
| VPS4B (GeneID 9525) | SID152149333 | 1.31 | 0.98 |
| CSPG5 (GeneID 10675) | SID152148930 | 1.1 | 0.88 |
| HMGCLL1 (GeneID 54511) | SID152154833 | 0.95 | 0.92 |
| TMPRSS4 (GeneID 56649) | SID135620960 | 1.13 | 0.88 |
| BBC3 (GeneID 27113) | SID152155898 | 0.81 | 0.52 |
| BYSL (GeneID 705) | SID152155349 | 1.15 | 0.78 |
| ZIC5 (GeneID 85416) | SID152151921 | 1.38 | 0.77 |
| NR1D2 (GeneID 9975) | SID134309883 | 0.83 | 0.7 |
| AP3B2 (GeneID 8120) | SID152154578 | 1.3 | 1.08 |
| SPDYC (GeneID 387778) | SID135624851 | 1.21 | 0.94 |
| ELL3 (GeneID 80237) | SID152151038 | 0.92 | 0.66 |
| GNB1L (GeneID 54584) | SID152156192 | 0.92 | 0.48 |
| KLHDC3 (GeneID 116138) | SID134317221 | 1.7 | 0.97 |
| VDR (GeneID 7421) | SID152151599 | 1.19 | 1.07 |
| ADAMTS5 (GeneID 11096) | SID152148929 | 1.13 | 1.02 |
| RGMA (GeneID 56963) | SID134318004 | 0.74 | 0.55 |
| ZNF22-AS1 (GeneID 220979) | SID135623180 | 1.16 | 0.74 |
| C22orf15 (GeneID 150248) | SID135623572 | 1.39 | 0.89 |
| GSTT2B (GeneID 653689) | SID135625551 | 0.82 | 0.72 |
| KIF21B (GeneID 23046) | SID152147132 | 1.09 | 0.96 |
| FAM8A1 (GeneID 51439) | SID134324635 | 1.03 | 0.98 |
| WFDC10A (GeneID 140832) | SID134317497 | 1.37 | 0.78 |
| HOXB6 (GeneID 3216) | SID152149818 | 1.02 | 0.92 |
| CABP5 (GeneID 56344) | SID134317467 | 0.85 | 0.52 |
| ITGAE (GeneID 3682) | SID152152269 | 0.98 | 0.96 |
| NDC1 (GeneID 55706) | SID152150277 | 0.85 | 0.68 |
| HCK (GeneID 3055) | SID135620622 | 1 | 0.94 |
| NDST4 (GeneID 64579) | SID134313176 | 1.03 | 1.02 |
| KCNH7 (GeneID 90134) | SID134311655 | 1.13 | 0.96 |
| RPL21 (GeneID 6144) | SID152146900 | 1 | 0.26 |
| OR2T2 (GeneID 401992) | SID134329838 | 1.19 | 0.86 |
| PMAIP1 (GeneID 5366) | SID152148742 | 1.1 | 0.68 |
| AACS (GeneID 65985) | SID152153685 | 0.73 | 0.38 |
| MPV17 (GeneID 4358) | SID152153029 | 1.19 | 0.5 |
| EEF2KMT (GeneID 196483) | SID134326905 | 0.99 | 0.88 |
| STAMBPL1 (GeneID 57559) | SID152152598 | 0.97 | 0.6 |
| U2AF1 (GeneID 7307) | SID135622301 | 1.38 | 0.36 |
| ZNF81 (GeneID 347344) | SID135625100 | 0.9 | 0.84 |
| STRADB (GeneID 55437) | SID135620967 | 0.98 | 0.78 |
| CXCR4 (GeneID 7852) | SID152146885 | 0.66 | 0.5 |
| CPLX1 (GeneID 10815) | SID152155164 | 1.09 | 1.07 |
| SLC46A1 (GeneID 113235) | SID152151930 | 0.89 | 0.82 |
| EID1 (GeneID 23741) | SID134309819 | 0.84 | 0.64 |
| NPIPB15 (GeneID 440348) | SID135625317 | 1.56 | 0.78 |
| MIER2 (GeneID 54531) | SID135624423 | 0.98 | 0.85 |
| SLC35F4 (GeneID 341880) | SID152150789 | 1 | 0.9 |
| TDP1 (GeneID 55775) | SID152155881 | 1.24 | 1.02 |
| CCER1 (GeneID 196477) | SID134319819 | 1 | 1 |
| RTF2 (GeneID 51507) | SID152154295 | 0.71 | 0.64 |
| OR9Q1 (GeneID 219956) | SID152149012 | 0.96 | 0.8 |
| DNAJC2 (GeneID 27000) | SID135624509 | 0.83 | 0.7 |
| TAT (GeneID 6898) | SID134313214 | 0.98 | 0.93 |
| PRKCH (GeneID 5583) | SID56478829 | 0.74 | 0.55 |
| UFSP2 (GeneID 55325) | SID135624147 | 0.85 | 0.84 |
| BTN2A2 (GeneID 10385) | SID152150261 | 0.85 | 0.78 |
| TMEM63B (GeneID 55362) | SID152154730 | 0.9 | 0.37 |

7 entries already listed, sorted by “CDH1-null viability vs mock (fraction of mock)”, low to high:
| Gene | PubChem SID | CDH1-null / parental viability ratio | CDH1-null viability vs mock (fraction of mock) |
| --- | --- | --- | --- |
| TOMM7 (GeneID 54543) | SID134317971 | 1.08 | 0.26 |
| COQ5 (GeneID 84274) | SID134314471 | 0.86 | 0.6 |
| PPP1R12A (GeneID 4659) | SID134315686 | 1.39 | 0.61 |
| CDK2 (GeneID 1017) | SID56478596 | 0.75 | 0.72 |
| MRPS2 (GeneID 51116) | SID135622460 | 1.35 | 0.92 |
| KIF3B (GeneID 9371) | SID134314326 | 1.05 | 0.92 |
| DCP2 (GeneID 167227) | SID152156651 | 1.26 | 1.32 |
